For 3 substances, binding results are on record in publication PMC10196829.

The chains behind the UniProt entries cited, without tags or fusion partners. Residues count along the entry.
UniProt P17301, residues 30-1181: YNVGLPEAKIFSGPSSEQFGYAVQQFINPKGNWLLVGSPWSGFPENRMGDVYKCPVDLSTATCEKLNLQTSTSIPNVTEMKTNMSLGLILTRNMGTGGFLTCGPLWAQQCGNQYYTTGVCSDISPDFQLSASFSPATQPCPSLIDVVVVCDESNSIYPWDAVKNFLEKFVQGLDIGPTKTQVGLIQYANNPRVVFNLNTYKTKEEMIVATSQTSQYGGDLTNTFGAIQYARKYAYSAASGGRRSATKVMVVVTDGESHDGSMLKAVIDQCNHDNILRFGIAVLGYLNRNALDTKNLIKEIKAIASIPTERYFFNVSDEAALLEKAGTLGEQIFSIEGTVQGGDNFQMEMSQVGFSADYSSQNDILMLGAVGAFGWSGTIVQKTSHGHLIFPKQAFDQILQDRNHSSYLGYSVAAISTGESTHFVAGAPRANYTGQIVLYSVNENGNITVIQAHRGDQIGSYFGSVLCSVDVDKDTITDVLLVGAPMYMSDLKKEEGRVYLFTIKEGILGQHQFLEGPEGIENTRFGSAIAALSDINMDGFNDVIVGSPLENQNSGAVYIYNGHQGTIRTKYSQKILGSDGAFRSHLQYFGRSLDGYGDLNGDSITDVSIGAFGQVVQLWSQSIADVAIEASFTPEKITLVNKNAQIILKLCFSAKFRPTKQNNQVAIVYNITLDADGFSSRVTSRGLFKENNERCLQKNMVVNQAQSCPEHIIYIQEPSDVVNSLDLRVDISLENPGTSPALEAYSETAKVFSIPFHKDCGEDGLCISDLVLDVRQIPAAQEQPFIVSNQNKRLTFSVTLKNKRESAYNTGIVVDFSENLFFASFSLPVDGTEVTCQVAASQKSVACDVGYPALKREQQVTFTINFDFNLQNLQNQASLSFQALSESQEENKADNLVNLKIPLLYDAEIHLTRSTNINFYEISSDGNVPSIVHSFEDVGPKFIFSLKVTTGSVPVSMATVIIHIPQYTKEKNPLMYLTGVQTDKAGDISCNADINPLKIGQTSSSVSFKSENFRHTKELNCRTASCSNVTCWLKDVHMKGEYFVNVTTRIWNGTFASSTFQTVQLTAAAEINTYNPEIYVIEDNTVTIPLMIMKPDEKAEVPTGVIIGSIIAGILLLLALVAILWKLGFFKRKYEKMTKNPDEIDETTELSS
UniProt P18564, residues 22-788: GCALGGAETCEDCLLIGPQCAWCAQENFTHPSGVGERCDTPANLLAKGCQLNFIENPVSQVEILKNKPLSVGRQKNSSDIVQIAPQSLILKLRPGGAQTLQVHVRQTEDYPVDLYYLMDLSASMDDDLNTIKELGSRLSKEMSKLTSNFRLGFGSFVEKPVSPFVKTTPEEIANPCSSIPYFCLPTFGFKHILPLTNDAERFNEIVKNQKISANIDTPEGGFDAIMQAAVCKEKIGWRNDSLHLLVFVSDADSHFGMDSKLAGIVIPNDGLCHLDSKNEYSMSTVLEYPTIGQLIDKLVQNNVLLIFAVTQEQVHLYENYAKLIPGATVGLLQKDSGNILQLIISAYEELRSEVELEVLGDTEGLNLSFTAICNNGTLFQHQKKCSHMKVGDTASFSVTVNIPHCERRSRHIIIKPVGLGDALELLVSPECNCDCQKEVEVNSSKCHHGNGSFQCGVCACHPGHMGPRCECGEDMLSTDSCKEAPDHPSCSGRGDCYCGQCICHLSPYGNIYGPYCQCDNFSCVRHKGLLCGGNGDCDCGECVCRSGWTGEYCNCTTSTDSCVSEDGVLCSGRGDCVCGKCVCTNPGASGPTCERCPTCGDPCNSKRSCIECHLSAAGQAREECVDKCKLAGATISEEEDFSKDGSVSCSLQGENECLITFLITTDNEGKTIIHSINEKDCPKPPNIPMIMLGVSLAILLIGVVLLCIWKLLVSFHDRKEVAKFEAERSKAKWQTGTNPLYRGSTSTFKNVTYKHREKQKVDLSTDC
UniProt P05107, residues 23-769: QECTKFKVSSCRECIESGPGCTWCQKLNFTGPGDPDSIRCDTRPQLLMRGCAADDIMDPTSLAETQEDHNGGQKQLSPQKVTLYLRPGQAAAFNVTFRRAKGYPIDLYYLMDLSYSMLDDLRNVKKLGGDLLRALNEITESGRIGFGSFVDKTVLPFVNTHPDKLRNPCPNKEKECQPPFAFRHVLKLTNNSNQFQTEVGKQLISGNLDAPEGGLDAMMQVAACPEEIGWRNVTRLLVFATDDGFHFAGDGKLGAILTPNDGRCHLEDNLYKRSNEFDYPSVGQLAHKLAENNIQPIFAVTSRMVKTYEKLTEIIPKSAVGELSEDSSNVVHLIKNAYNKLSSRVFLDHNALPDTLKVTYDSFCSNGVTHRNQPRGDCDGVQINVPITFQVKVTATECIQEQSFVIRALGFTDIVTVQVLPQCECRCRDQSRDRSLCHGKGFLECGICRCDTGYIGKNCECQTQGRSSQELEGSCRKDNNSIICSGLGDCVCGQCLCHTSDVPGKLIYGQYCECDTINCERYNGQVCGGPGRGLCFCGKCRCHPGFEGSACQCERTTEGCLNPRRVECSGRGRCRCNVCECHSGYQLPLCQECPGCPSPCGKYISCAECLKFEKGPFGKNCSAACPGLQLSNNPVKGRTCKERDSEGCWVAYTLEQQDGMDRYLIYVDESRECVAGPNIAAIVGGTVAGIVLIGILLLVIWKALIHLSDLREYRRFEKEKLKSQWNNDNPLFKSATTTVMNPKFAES

Test [1] has as its target ITGA2-HIS (human) (UniProt P17301). The test is described as follows: co-IP; extracts of MLE-12 cells co-transfected with ITGA2-HIS and ITGB2-YFP or ITGB6-GFP; IP with HIS-specific antibodies or IgG as control; protein-G-sepharose; Western blot; input 3%.
For test [2], the target named is endogenous ITGB6 (A549 cells) (human (endogenous in A549)) (UniProt P18564). Nature of the test: condition: only with ITGB2 overexpressed in the A549 cells; co-IP; as a3, IP with ITGB6-specific antibody from A549 cells that overexpress ITGB2.
The target is the same in test [3]. The test is described as follows: co-IP; extracts of A549 cells transfected with empty vector (Ctrl) or ITGB2; IP with ITGB6- or ITGB2-specific antibodies or IgG; Western blot; input 5%. In general terms: In western blotting, separated proteins are transferred to a membrane and probed.

Results are given in words; binding and its absence hold for the method and conditions named. Binding seen in cells or lysates may run through a third protein. Some results given as binding are weak or reduced against the parent protein; the word gives no strength.

As for “ITGB2-YFP (in MLE-12 cells) (from UniProt P05107 23-769) (receptor)”, the binding result in test [1] is “binds”.

“ITGB6-GFP (in MLE-12 cells) (from UniProt P18564 22-788) (receptor)”: the binding result in test [1] is listed as “binds”.

Consider “endogenous EGFR, non-phosphorylated (A549 cells) (from UniProt P00533 25-1210) (receptor)”, for which the binding result in test [2] was “no binding”; in test [3], “binds”.
